Data as given in PubChem BioAssay AID1159578 (Peter MacCallum Cancer Centre, 2015)
This is an unselected part of about 18,000 reagents tested. In the full data, about 1,030 (5.7%) are marked active. 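Inactive calls also include pools with fewer than 3300 nuclei, whose migration was not assessed.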 Raw values are not corrected between plates. Unmarked entries are inactive.

Screen: 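siRNA pools altering how lymphatic endothelial cells close a scratch wound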 (primary screen)
Cell system: human lymphatic endothelial cells
Reagents: siRNA pool against human genes, 40 nM
Time to read-out: 48 h after transfection
Measured: 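Cells stained with dye and imaged after a scratch; covered wound area and nuclei counted, duplicates averaged, migration set against mock wells and turned into a robust z-score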
Reading the numbers: migration robust z-score: higher = faster migration into the scratch; migration relative to mock: higher = more scratch area covered than mock; nuclei per well: higher = more cells in the well
Active means: 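Pools averaging fewer than 3300 nuclei are never called; remaining pools count as changed when migration robust z lies outside -2 to 2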
Calls: active = migration changed; inactive = no migration change, or too few cells

gene | migration robust z-score | migration class with cell-count check | migration relative to mock | nuclei per well, duplicate mean
CNNM2 | 1.54 | migration z between -2 and 2; enough cells | 1.29 | 5990
OR8H2 | -0.04 | migration z between -2 and 2; enough cells | 0.88 | 5019
PKHD1 | 1.28 | migration z between -2 and 2; enough cells | 1.22 | 5996
SLC39A2 | -0.62 | migration z between -2 and 2; enough cells | 0.68 | 4699
CTAG1B | -0.05 | migration z between -2 and 2; enough cells | 0.88 | 6190
SMIM29 | 0.68 | migration z between -2 and 2; enough cells | 1.06 | 5847
GIT1 | -0.86 | migration z between -2 and 2; enough cells | 0.66 | 4832
IGFBP6 | 0.45 | migration z between -2 and 2; enough cells | 1 | 4807
NOBOX | 0.9 | migration z between -2 and 2; enough cells | 1.12 | 5965
ZC3H13 | -1.43 | migration z between -2 and 2; enough cells | 0.52 | 4277
FBXO5 | 0.28 | migration z between -2 and 2; enough cells | 0.86 | 5417
TMEM11 | -1.27 | migration z between -2 and 2; enough cells | 0.56 | 4852
CPXM1 | 0.08 | migration z between -2 and 2; enough cells | 0.82 | 6034
CDK14 | -1.94 | migration z between -2 and 2; enough cells | 0.43 | 5437
KIF24 | 0.38 | migration z between -2 and 2; enough cells | 0.98 | 5984
ZNF418 | 1.87 | migration z between -2 and 2; enough cells | 1.37 | 7552
FNDC7 | 0.9 | migration z between -2 and 2; enough cells | 1.12 | 7134
PTPRH | -1.77 | migration z between -2 and 2; enough cells | 0.46 | 6396
HIC1 | -3.79 (active) | migration z below -2; enough cells | 0.08 | 6162
FBXW11 | -2.86 (active) | migration z below -2; enough cells | 0.26 | 5392
PUM1 | 1.43 | migration z between -2 and 2; enough cells | 1.25 | 6011
TRABD | -0.46 | migration z between -2 and 2; enough cells | 0.77 | 6663

Ordered by “nuclei per well, duplicate mean” (high to low): some entries from above
gene | migration robust z-score | migration class with cell-count check | migration relative to mock | nuclei per well, duplicate mean
ZNF418 | 1.87 | migration z between -2 and 2; enough cells | 1.37 | 7552
FNDC7 | 0.9 | migration z between -2 and 2; enough cells | 1.12 | 7134
PTPRH | -1.77 | migration z between -2 and 2; enough cells | 0.46 | 6396
HIC1 | -3.79 (active) | migration z below -2; enough cells | 0.08 | 6162
FBXW11 | -2.86 (active) | migration z below -2; enough cells | 0.26 | 5392

Further records follow:
gene | migration robust z-score | migration class with cell-count check | migration relative to mock | nuclei per well, duplicate mean
F8A1 | 0.74 | migration z between -2 and 2; enough cells | 1.08 | 5002
OR52D1 | 0.26 | migration z between -2 and 2; enough cells | 0.96 | 6772
C3orf62 | -0.9 | migration z between -2 and 2; enough cells | 0.64 | 3708
CADPS | 0.3 | migration z between -2 and 2; enough cells | 0.96 | 5005
TREML1 | -0.49 | migration z between -2 and 2; enough cells | 0.76 | 4087
WNT1 | 0.22 | migration z between -2 and 2; enough cells | 0.94 | 4910
CRTAC1 | -0.62 | migration z between -2 and 2; enough cells | 0.72 | 6132
FUT7 | 1.22 | migration z between -2 and 2; enough cells | 1.04 | 6176
TGFB1I1 | -0.96 | migration z between -2 and 2; enough cells | 0.62 | 6403
RPL36 | -0.43 | migration z between -2 and 2; enough cells | 0.77 | 5055
ISLR2 | -0.27 | migration z between -2 and 2; enough cells | 0.82 | 6456
ZNF558 | 0.66 | migration z between -2 and 2; enough cells | 1.06 | 6246
QSER1 | -0.75 | migration z between -2 and 2; enough cells | 0.69 | 4584
NICN1 | 1.91 | migration z between -2 and 2; enough cells | 1.38 | 5136
EIF1 | 0.39 | migration z between -2 and 2; enough cells | 0.88 | 5544
MIEF1 | -2.47 (active) | migration z below -2; enough cells | 0.24 | 4921
SERHL2 | -0.62 | migration z between -2 and 2; enough cells | 0.68 | 4965
GRB10 | 2.68 (active) | migration z above 2; enough cells | 1.57 | 6298
C3orf18 | 0.29 | migration z between -2 and 2; enough cells | 0.96 | 5800
SYT14 | -0.6 | migration z between -2 and 2; enough cells | 0.73 | 4946
CAVIN2 | -0.43 | migration z between -2 and 2; enough cells | 0.78 | 5278
MTF1 | -1.5 | migration z between -2 and 2; enough cells | 0.52 | 5455
GBF1 | -0.34 | migration z between -2 and 2; enough cells | 0.8 | 6380
SP1 | -0.34 | migration z between -2 and 2; enough cells | 0.74 | 5321
PROZ | -0.16 | migration z between -2 and 2; enough cells | 0.78 | 5400
AMOTL1 | 0.48 | migration z between -2 and 2; enough cells | 1.01 | 5718
WASHC3 | 1.48 | migration z between -2 and 2; enough cells | 1.27 | 5529
SACK1A | -3.21 (active) | migration z below -2; enough cells | 0.05 | 4256
R3HDM2 | 0.4 | migration z between -2 and 2; enough cells | 0.99 | 4726
AKIP1 | 0.01 | migration z between -2 and 2; enough cells | 0.89 | 5630
HLA-DPB1 | -0.86 | migration z between -2 and 2; enough cells | 0.64 | 6124
SSR3 | 1.34 | migration z between -2 and 2; enough cells | 1.23 | 6292
BPIFB3 | -0.36 | migration z between -2 and 2; enough cells | 0.8 | 5363
DCHS1 | 1.56 | migration z between -2 and 2; enough cells | 1.28 | 3952
SPATA31G1 | 0.19 | migration z between -2 and 2; enough cells | 0.94 | 5492
